Measured values from patent US12097241B2 (BRISTOL-MYERS SQUIBB COMPANY, priority 2017, dated 2024).

Experiment: general procedure: Fmoc solid-phase peptide synthesis; 2-chlorotrityl chloride resin (Chem-Impex, 100-200 mesh, 1.1 meq/g); HATU/DIPEA

Substance “(23S,28S)-tert-butyl 28-(((benzyloxy)carbonyl)amino)-23-(hydroxymethyl)-2,2-dimethyl-4,10,13,16,19,22,25-heptaoxo-3,6-dioxa-5,9,12,15,18,21,24-heptaazanonacosan-29-oate” has a step yield (coupling step) of 73%.

With “(17S,22S)-1-(aminooxy)-22-carboxy-17-(hydroxymethyl)-4,7,10,13,16,19,24-heptaoxo-3,6,9,12,15,18,23-heptaazaoctatriacontan-38-oic acid” the step yield (late stage modification step) was 95% yield, the “crude purity (method not given)” value (late stage modification step, HPLC with CAD detection) was 81% purity and the isolated mass (whole synthesis) was 88 mg. The “final purity (method not given)” value (whole synthesis, LC-CAD, scale of the general procedure 0.4 mmol) was 98.6% and the isolated yield (whole synthesis, scale of the general procedure 0.4 mmol) was 25.9%.

“(5S,10S)-methyl 5-(tert-butoxycarbonyl)-10-(hydroxymethyl)-3,8,11,14-tetraoxo-1-phenyl-2-oxa-4,9,12,15-tetraazaheptadecan-17-oate” gave a step yield (coupling step) of 93%.

“(5S,10S)-5-(tert-butoxycarbonyl)-10-(hydroxymethyl)-3,8,11,14-tetraoxo-1-phenyl-2-oxa-4,9,12,15-tetraazaheptadecan-17-oic acid” gave a step yield (late stage modification step) of 96%.
